From patent publication US20250295799A1 (Zymeworks BC Inc., priority 2022, published 2025)

Assay: general procedure: solution-phase peptide synthesis; HATU

| Substance | step yield (late stage modification step) [%] | also measured |
| --- | --- | --- |
| 2-((2-(((S)-1-((2-(((S)-4-ethyl-8-fluoro-4-hydroxy-3,14-dioxo-3,4,12,14-tetrahydro-1H-pyrano[3′,4′:6,7]indolizino[1,2-b]quinolin-9-yl)amino)-2-oxoethyl)amino)-1-oxo-3-phenylpropan-2-yl)amino)-2-oxoethyl)amino)-2-oxoethan-1-aminium | – | step yield (coupling step): 88% |
| (9H-fluoren-9-yl)methyl ((7S)-1-((3-azabicyclo[3.1.1]heptan-6-yl)oxy)-7-benzyl-3,6,9,12-tetraoxo-2,5,8,11-tetraazatridecan-13-yl)carbamate | 46 | – |
| (9H-fluoren-9-yl)methyl (S)-(9-benzyl-1-(3-fluoroazetidin-3-yl)-5,8,11,14-tetraoxo-2-oxa-4,7,10,13-tetraazapentadecan-15-yl)carbamate | 54 | – |
| (S)-16-amino-10-benzyl-6,9,12,15-tetraoxo-3-oxa-5,8,11,14-tetraazahexadecyl (((S)-4-ethyl-8-fluoro-4-hydroxy-9-methyl-3,14-dioxo-3,4,12,14-tetrahydro-1H-pyrano[3′,4′:6,7]indolizino[1,2-b]quinolin-11-yl)methyl)carbamate | – | conjugation yield (conjugation step, TFA salt): 39% |
